Among the data in PubChem BioAssay AID328 (DTP/NCI, 2004) are T/C and survivor count values, retold here.

Structures are written as SMILES. The list is a part of this screen's results and no random one: it is rich in T/C values a quarter to a half above the control, in often repeated tests (any T/C) and in doses without a T/C. Other doses and runs of a compound stand elsewhere. T/C is the treated group as % of the vehicle group. Some entries give survivors of the animals treated and no T/C: the source holds a T/C of zero for them, seemingly a mark for toxic or unscored doses. Some doses without a T/C left all or most animals alive at the check, yet need not have been tolerated: survival well below the control is almost never listed, so the zero probably covers shortened survival too. Counts of survivors are from the toxicity check (mostly the fifth day) where no day follows; animals may have died later. Schedule codes are those of the source, read here as Q, the interval in days (D) or hours (H), X, the number of doses. Some entries were tested several times; the results are listed from low to high. Where survival is the endpoint, the PubChem record calls one and a half times the control and up active, and a quarter to a half above the control has no call in these data; cut-offs in other NCI protocols can differ. Some T/C values carry the count of animals alive at the toxicity check (mostly the fifth day); where none is given, no animal had died by that day.

For the assay, the system named is BDF1 mice, P388 leukemia ip, median survival T/C. Nature of the assay: NCI In Vivo Anticancer Drug Screen. Data for tumor model P388 Leukemia (intraperitoneal) in B6D2F1 (BDF1) mice. To be noted: T/C endpoint: median survival time, higher T/C = longer survival. The gist of the method:
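Reported as T/C, where T is the survival measurement in dosed animals and C the same measurement in vehicle controls.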

The mark [1] stands for this setting: dose: 50.0 mg/kg/injection, schedule: Q04DX003 (ip), vehicle: saline with Tween-80.
Where [2] appears, read: dose: 100.0 mg/kg/injection, schedule: Q04DX003 (ip), vehicle: saline with Tween-80.
[3] abbreviates: dose: 400.0 mg/kg/injection, schedule: Q04DX003 (ip), vehicle: saline with Tween-80.
[4] abbreviates: dose: 50.0 mg/kg/injection, schedule: Q01DX009 (ip), vehicle: saline.
Where [5] appears, read: dose: 100.0 mg/kg/injection, schedule: Q01DX009 (ip), vehicle: saline.
The mark [6] stands for this setting: dose: 200.0 mg/kg/injection, schedule: Q01DX009 (ip), vehicle: saline.
Setting [7] is: dose: 400.0 mg/kg/injection, schedule: Q01DX009 (ip), vehicle: saline.
The mark [8] stands for this setting: dose: 50.0 mg/kg/injection, schedule: Q04DX003 (ip), vehicle: saline.
[9] abbreviates: dose: 100.0 mg/kg/injection, schedule: Q04DX003 (ip), vehicle: saline.
[10] abbreviates: dose: 200.0 mg/kg/injection, schedule: Q04DX003 (ip), vehicle: saline.
The mark [11] stands for this setting: dose: 32.0 mg/kg/injection, schedule: Q01DX009 (ip), vehicle: Klucel (hydroxypropylcellulose) (HPC).

With `Cc1cc(C)c(-c2cc(O)c(C)cc2O)c(C)c1`, the T/C by setting is: (dose: 50.0 mg/kg/injection, schedule: Q01DX009 (ip), vehicle: other) 128 % of control; (dose: 200.0 mg/kg/injection, schedule: Q01DX009 (ip), vehicle: other) 148 % of control; (dose: 400.0 mg/kg/injection, schedule: Q01DX009 (ip), vehicle: other) 138 % of control. Also, the survivor count runs as follows: under setting [1], 6 of 6; under setting [2], 6 of 6; under setting [3], 6 of 6.

On to `Cc1ncc([N+](=O)[O-])n1CCSC(N)=O`, for which the T/C under setting [3] was 138 % of control.

`CC1(c2ccco2)NC(=O)N(Cl)C1=O` (stereo unspecified): the survivor count by setting is: under setting [4], 5 of 6; under setting [5], 5 of 6; under setting [6], 6 of 6; under setting [7], 3 of 6.

As for `Br/C(=N\Nc1nn[nH]n1)c1ccncc1`, the survivor count under setting [7] is 1 of 6.

On to `Clc1ccc(N=C/C=C\C=C/Nc2ccc(Cl)cc2)cc1`, for which the survivor count (dose: 40.0 mg/kg/injection, schedule: Q01DX009 (ip), vehicle: saline with Tween-80) is 7 of 7 and the survivor count (dose: 80.0 mg/kg/injection, schedule: Q01DX009 (ip), vehicle: saline with Tween-80) is given as 5 of 7.

With `COC(=O)C(C)CN1CCCCC1` (stereo unspecified), the survivor count reads like this: under setting [4], 4 of 6; under setting [5], 5 of 6; under setting [6], 5 of 6.

Take `O=C(NCCCCOc1ccc([N+](=O)[O-])cc1Cl)c1ccc(S(=O)(=O)F)cc1`: the survivor count (dose: 200.0 mg/kg/injection, schedule: Q04DX003 (ip), vehicle: saline with Tween-80) is 4 of 6.

For the molecule `CC[N+](CC)(CC)CCCCC[N+](CC)(CC)CC`, the survivor count (dose: 50.0 mg/kg/injection, schedule: Q04DX003 (ip), vehicle: water) is 4 of 6 and the survivor count (dose: 100.0 mg/kg/injection, schedule: Q04DX003 (ip), vehicle: water) is on record as 2 of 6.

On to `CC(C)=CCNc1ncnc2c1ncn2C1OC(CO)C(O)C1O` (stereo unspecified), for which the survivor count under setting [3] is 2 of 6.

Turning to `C=CC(COC(C)=O)N1CC1` (stereo unspecified), the T/C by setting is: (dose: 12.0 mg/kg/injection, schedule: Q01DX009 (ip), vehicle: saline) 130 % of control; (dose: 17.0 mg/kg/injection, schedule: Q01DX009 (ip), vehicle: saline) 145 % of control. Besides, the survivor count is, setting by setting: under setting [8], 6 of 6; under setting [9], 2 of 6; under setting [10], 0 of 6; (dose: 400.0 mg/kg/injection, schedule: Q04DX003 (ip), vehicle: saline) 0 of 6.

For `CCCCOCCN1CCN(CCCN2c3ccccc3Sc3ccc(C(F)(F)F)cc32)CC1`, the T/C reads like this: (dose: 12.5 mg/kg/injection, schedule: Q04DX003 (ip), vehicle: saline) 132 % of control; (dose: 25.0 mg/kg/injection, schedule: Q04DX003 (ip), vehicle: saline) 139 % of control; under setting [8], 129 % of control.

Turning to `O=NN(CCCl)C(=O)Nc1cc(Cl)ccc1O`, the T/C reads like this: (dose: 33.0 mg/kg/injection, schedule: Q04DX003 (ip), vehicle: saline with Tween-80) 139 % of control; under setting [1], 139 % of control; (dose: 75.0 mg/kg/injection, schedule: Q04DX003 (ip), vehicle: saline with Tween-80) 139 % of control.

Consider `CCc1ccc(/C=C/c2ccc(O)c3ncccc23)[n+](C)c1`, for which the T/C is, setting by setting: (dose: 1.1 mg/kg/injection, schedule: Q01DX009 (ip), vehicle: Klucel (hydroxypropylcellulose) (HPC)) 137 % of control; (dose: 2.7 mg/kg/injection, schedule: Q01DX009 (ip), vehicle: Klucel (hydroxypropylcellulose) (HPC)) 136 % of control; (dose: 4.0 mg/kg/injection, schedule: Q01DX009 (ip), vehicle: Klucel (hydroxypropylcellulose) (HPC)) 130 % of control; (dose: 4.0 mg/kg/injection, schedule: Q01DX009 (ip), vehicle: saline with Tween-80) 137 % of control; (dose: 6.25 mg/kg/injection, schedule: Q01DX009 (ip), vehicle: Klucel (hydroxypropylcellulose) (HPC)) 129 % of control; (dose: 10.56 mg/kg/injection, schedule: Q01DX009 (ip), vehicle: saline with Tween-80) 145 % of control [5 of 6 alive]. Further, the T/C runs as follows: (dose: 12.5 mg/kg/injection, schedule: Q01DX009 (ip), vehicle: Klucel (hydroxypropylcellulose) (HPC)) 133 % of control; (dose: 16.0 mg/kg/injection, schedule: Q01DX009 (ip), vehicle: saline with Tween-80) 141 % of control; (dose: 16.0 mg/kg/injection, schedule: Q04DX003 (ip), vehicle: saline) 136 % of control; (dose: 25.0 mg/kg/injection, schedule: Q01DX009 (ip), vehicle: Klucel (hydroxypropylcellulose) (HPC)) 133 % of control; (dose: 32.0 mg/kg/injection, schedule: Q04DX003 (ip), vehicle: saline) 131 % of control. Besides, the survivor count is 2 of 6 (dose: 24.0 mg/kg/injection, schedule: Q01DX009 (ip), vehicle: saline with Tween-80); 2 of 6 under setting [11]; 1 of 6 and 2 of 6 (dose: 37.5 mg/kg/injection, schedule: Q01DX009 (ip), vehicle: Klucel (hydroxypropylcellulose) (HPC)); 0 of 6 (dose: 45.0 mg/kg/injection, schedule: Q01DX009 (ip), vehicle: saline); 5 of 6 (dose: 45.0 mg/kg/injection, schedule: Q04DX003 (ip), vehicle: saline); 0 of 6 (dose: 70.0 mg/kg/injection, schedule: Q01DX009 (ip), vehicle: saline). Besides, the survivor count by setting is: (dose: 70.0 mg/kg/injection, schedule: Q04DX003 (ip), vehicle: saline) 0 of 6; (dose: 105.0 mg/kg/injection, schedule: Q01DX009 (ip), vehicle: saline) 0 of 6; (dose: 105.0 mg/kg/injection, schedule: Q04DX003 (ip), vehicle: saline) 0 of 6.

As for `Cn1c(Cl)nc2c(Cl)nc(Cl)nc21`, under setting [11], the survivor count is given as 2 of 6.

As for `CN1CC(C(=O)N2CCCCC2)C=C2c3cccc4[nH]cc(c34)CC21` (stereo unspecified), the survivor count is 5 of 6 (dose: 25.0 mg/kg/injection, schedule: Q01DX009 (ip), vehicle: saline); 5 of 6 under setting [4]; 3 of 6 under setting [5]; 5 of 6 under setting [9]; 1 of 6 under setting [10].

As for `COc1cc2c(c(OC)c1OC)CCC1(C)C(=O)NN=C21` (stereo unspecified), the survivor count (dose: 50.0 mg/kg/injection, schedule: Q01DX009 (ip), vehicle: Klucel (hydroxypropylcellulose) (HPC)) is reported as 1 of 6.

Consider `CCOC(=O)c1cccc(OP(=O)(N(C)C)N(C)C)c1`, for which the survivor count (dose: 200.0 mg/kg/injection, schedule: Q01DX009 (ip), vehicle: saline with Tween-80) is on record as 0 of 6.

As for `CC1(C)N=C(N)N=C(N)N1c1cccc(OCCOc2ccc([N+](=O)[O-])cc2)c1`, the T/C (dose: 200.0 mg/kg/injection, schedule: Q01DX009 (ip), vehicle: saline sonified) was 145 % of control.

For `Clc1ccc(-c2cc(=[N+]3CCOCC3)ss2)cc1`, the survivor count (dose: 200.0 mg/kg/injection, schedule: Q01DX009 (ip), vehicle: water) is on record as 4 of 6; the survivor count (dose: 400.0 mg/kg/injection, schedule: Q01DX009 (ip), vehicle: water) was 0 of 6; the survivor count (dose: 400.0 mg/kg/injection, schedule: Q04DX003 (ip), vehicle: water) is on record as 4 of 6.

Consider `[O-][n+]1ccc(Cl)c2ccsc21`, for which, under setting [2], the survivor count is recorded as 6 of 6.
